The target of this experiment is HA-STAT3 deletion construct with the transactivation domain (TAD). Put plainly: co-IP; tagged proteins co-transfected (HEK293T where stated); lysates precipitated with anti-HA, anti-Flag or anti-Myc, immunoblot. For orientation: A western blot detects proteins with antibodies after separation by electrophoresis.

These are yes or no findings as the source states them, for the method shown. Binding seen in cells or lysates may run through a third protein. Binding calls can cover weak binding; strength is not graded here. Tags and fused reporters may be left off the sequences shown.

B1: Flag-DDIAS (DNA damage-induced apoptosis suppressor) (protein, UniProt Q8IXT1 1-998)
chain: MNRRRKFLLASVLALQNSSFIYPSCQKCFSRIILVSKRSNCPKCGSTGESGNANYRYKLSLKVAESNKLFVITVFGSCLDTFFGLTATGLHRYIQDPNKIPETLDNDTTQNLLTKAVETCFVGQSFIFGVTNFENQPGQGSDASNFLQQCSDHKRKAKALVACQIVLPDPGIAGFTVIDYFHQLLQTFNFRKLQCDSQAPNNHLLALDHSNSDLSSIYTSDSTSDFFKSCSKDTFSKFWQPSLEFTCIVSQLTDNDDFSASEQSKAFGTLQQNRKSISIAEATGSSSCHDPIQDSWSLVSYMDKKSTAEKLGKELGLQAKELSAVHSSHHEIGVNDSNLFSLEMREPLESSNTKSFHSAVEIKNRSQHELPCFQHHGIDTPTSLQKRSACCPPSLLRLEETASSSQDGDPQIWDDLPFSESLNKFLAVLESEIAVTQADVSSRKHHVDNDIDKFHADHSRLSVTPQRTTGALHTPPIALRSSQVIVKANCSKDDFLFNCKGNLSPSVEKESQPDNKVEAVSVNHNGRDMSEYFLPNPYLSALSSSSKDLETIVTLKKTIRISPHRESDHSSLNNKYLNGCGEISVSEMNEKLTTLCYRKYNDVSDLCKLENKQYCRWSKNQDDSFTICRKLTYPLETLCNSPNRSTNTLKEMPWGHINNNVTQSYSIGYEGSYDASADLFDDIAKEMDIATEITKKSQDILLKWGTSLAESHPSESDFSLRSLSEDFIQPSQKLSLQSLSDSRHSRTCSPTPHFQSDSEYNFENSQDFVPCSQSTPISGFHQTRIHGINRAFKKPVFYSDLDGNYEKIRIFPENDKQQASPSCPKNIKTPSQKIRSPIVSGVSQPDVFNHYPFAECHETDSDEWVPPTTQKIFPSDMLGFQGIGLGKCLAAYHFPDQQELPRKKLKHIRQGTNKGLIKKKLKNMLAAVVTKKKTHKYNCKSSGWISKCPDIQVLAAPQLHPILGPDSCSEVKCCLPFSEKGPPSVCETRSAWSPELFS
In the case of B1, the binding result is “binds”.

The record behind these values is publication PMC6949220.
